For one molecule, binding results are on record in paper PMC12867838.

The chains behind the UniProt entries cited, without tags or fusion partners. Residues count along the entry.
UniProt Q9NZQ7, residues 19-290: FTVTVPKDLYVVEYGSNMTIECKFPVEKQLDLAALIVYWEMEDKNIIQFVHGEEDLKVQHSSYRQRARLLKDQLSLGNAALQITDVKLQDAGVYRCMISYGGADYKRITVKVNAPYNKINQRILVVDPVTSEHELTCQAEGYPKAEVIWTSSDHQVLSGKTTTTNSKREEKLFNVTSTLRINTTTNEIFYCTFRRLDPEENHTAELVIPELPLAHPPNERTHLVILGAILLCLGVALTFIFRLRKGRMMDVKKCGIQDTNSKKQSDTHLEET

The assay has as its target programmed cell death ligand 1 (PD-L1), HA- or Flag-tagged (UniProt Q9NZQ7). Briefly: co-IP; NP40 lysates of co-transfected cells (293T, Panc-1, Patu-8988), 1-2 mg whole cell lysate incubated with bead-conjugated anti-HA or anti-Flag antibodies overnight at 4°C, immunoblot; cells treated with 10 μM MG132 for 6 h before harvesting. A general note: In western blotting, separated proteins are transferred to a membrane and probed.

These are yes or no findings as the source states them, for the method shown. Binding seen in cells or lysates may run through a third protein. Some binding calls cover weakened binding; strength is not graded here. Tags and fused reporters may be left off the sequences shown.

B1: F-box protein 9 (FBXO9), HA- or Flag-tagged (protein, UniProt Q9UK97 1-447)
chain: MPDIIWVFPPQAEAEEDCHSDTVRADDDEENESPAETDLQAQLQMFRAQWMFELAPGVSSSNLENRPCRAARGSLQKTSADTKGKQEQAKEEKARELFLKAVEEEQNGALYEAIKFYRRAMQLVPDIEFKITYTRSPDGDGVGNSYIEDNDDDSKMADLLSYFQQQLTFQESVLKLCQPELESSQIHISVLPMEVLMYIFRWVVSSDLDLRSLEQLSLVCRGFYICARDPEIWRLACLKVWGRSCIKLVPYTSWREMFLERPRVRFDGVYISKTTYIRQGEQSLDGFYRAWHQVEYYRYIRFFPDGHVMMLTTPEEPQSIVPRLRTRNTRTDAILLGHYRLSQDTDNQTKVFAVITKKKEEKPLDYKYRYFRRVPVQEADQSFHVGLQLCSSGHQRFNKLIWIHHSCHITYKSTGETAVSAFEIDKMYTPLFFARVRSYTAFSERPL
Turning to B1, the binding result is on record as “binds”.
